In this test the target is protein arginine methyltransferase 1 (PRMT1) (human (endogenous in PATC53)) (UniProt Q99873). Nature of the test: affinity purification with mass spectrometry; endogenous PRMT1 immunoprecipitated from PATC53 lysate (10 mM Tris-HCl pH 7.5, 150 mM NaCl, 1% Triton X-100, 5 mM EDTA) with anti-PRMT1 antibody on Protein A Dynabeads, 1 h at room temperature; IgG control; LC-MS/MS.

Sequences of proteins named here, by UniProt entry; tags and fusion partners are left off.
UniProt Q99873: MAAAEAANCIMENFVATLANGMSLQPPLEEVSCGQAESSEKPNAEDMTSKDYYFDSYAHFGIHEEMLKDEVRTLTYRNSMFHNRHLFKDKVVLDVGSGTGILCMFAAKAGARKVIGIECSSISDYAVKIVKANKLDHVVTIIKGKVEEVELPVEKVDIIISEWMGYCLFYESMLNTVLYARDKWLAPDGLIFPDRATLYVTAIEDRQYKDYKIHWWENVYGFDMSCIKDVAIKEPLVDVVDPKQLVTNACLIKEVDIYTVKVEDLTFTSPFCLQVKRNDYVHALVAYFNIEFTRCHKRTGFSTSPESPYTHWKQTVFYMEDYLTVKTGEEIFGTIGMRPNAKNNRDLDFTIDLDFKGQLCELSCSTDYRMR
UniProt Q9NYF8: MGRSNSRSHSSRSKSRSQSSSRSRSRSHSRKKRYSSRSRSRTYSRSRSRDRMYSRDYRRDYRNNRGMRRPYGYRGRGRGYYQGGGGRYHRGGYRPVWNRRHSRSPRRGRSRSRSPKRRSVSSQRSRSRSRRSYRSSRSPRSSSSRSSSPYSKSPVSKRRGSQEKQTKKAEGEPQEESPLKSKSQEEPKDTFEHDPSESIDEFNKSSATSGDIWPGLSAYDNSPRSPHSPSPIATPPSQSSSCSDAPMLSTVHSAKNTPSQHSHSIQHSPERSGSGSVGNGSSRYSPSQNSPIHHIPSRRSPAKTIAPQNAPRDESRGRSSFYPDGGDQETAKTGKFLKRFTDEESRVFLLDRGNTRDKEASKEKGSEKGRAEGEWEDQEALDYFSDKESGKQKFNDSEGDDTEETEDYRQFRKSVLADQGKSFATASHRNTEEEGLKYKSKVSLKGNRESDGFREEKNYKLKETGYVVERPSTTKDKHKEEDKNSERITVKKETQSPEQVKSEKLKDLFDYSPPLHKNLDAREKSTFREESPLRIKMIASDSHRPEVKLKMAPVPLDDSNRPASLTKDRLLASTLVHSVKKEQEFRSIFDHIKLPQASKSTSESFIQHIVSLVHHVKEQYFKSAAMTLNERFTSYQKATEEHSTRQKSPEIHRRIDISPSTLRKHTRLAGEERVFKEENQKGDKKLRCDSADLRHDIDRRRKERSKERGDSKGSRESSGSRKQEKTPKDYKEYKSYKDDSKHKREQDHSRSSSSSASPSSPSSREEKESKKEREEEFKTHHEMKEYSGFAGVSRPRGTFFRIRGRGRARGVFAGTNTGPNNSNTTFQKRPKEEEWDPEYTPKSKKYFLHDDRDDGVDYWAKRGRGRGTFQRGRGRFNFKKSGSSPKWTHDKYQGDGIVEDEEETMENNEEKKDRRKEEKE

Results are given in words; binding and its absence hold for the method and conditions named. In cells and extracts the contact can be indirect. Here binding means that the protein was enriched with, or labelled near, the bait; the list need not be complete.

As for BCLAF1 (from UniProt Q9NYF8 1-920), the binding entry is “binds”.

B1: THRAP3 (protein, UniProt Q9Y2W1 1-955)
chain: MSKTNKSKSGSRSSRSRSASRSRSRSFSKSRSRSRSLSRSRKRRLSSRSRSRSYSPAHNRERNHPRVYQNRDFRGHNRGYRRPYYFRGRNRGFYPWGQYNRGGYGNYRSNWQNYRQAYSPRRGRSRSRSPKRRSPSPRSRSHSRNSDKSSSDRSRRSSSSRSSSNHSRVESSKRKSAKEKKSSSKDSRPSQAAGDNQGDEAKEQTFSGGTSQDTKASESSKPWPDATYGTGSASRASAVSELSPRERSPALKSPLQSVVVRRRSPRPSPVPKPSPPLSSTSQMGSTLPSGAGYQSGTHQGQFDHGSGSLSPSKKSPVGKSPPSTGSTYGSSQKEESAASGGAAYTKRYLEEQKTENGKDKEQKQTNTDKEKIKEKGSFSDTGLGDGKMKSDSFAPKTDSEKPFRGSQSPKRYKLRDDFEKKMADFHKEEMDDQDKDKAKGRKESEFDDEPKFMSKVIGANKNQEEEKSGKWEGLVYAPPGKEKQRKTEELEEESFPERSKKEDRGKRSEGGHRGFVPEKNFRVTAYKAVQEKSSSPPPRKTSESRDKLGAKGDFPTGKSSFSITREAQVNVRMDSFDEDLARPSGLLAQERKLCRDLVHSNKKEQEFRSIFQHIQSAQSQRSPSELFAQHIVTIVHHVKEHHFGSSGMTLHERFTKYLKRGTEQEAAKNKKSPEIHRRIDISPSTFRKHGLAHDEMKSPREPGYKAEGKYKDDPVDLRLDIERRKKHKERDLKRGKSRESVDSRDSSHSRERSAEKTEKTHKGSKKQKKHRRARDRSRSSSSSSQSSHSYKAEEYTEETEEREESTTGFDKSRLGTKDFVGPSERGGGRARGTFQFRARGRGWGRGNYSGNNNNNSNNDFQKRNREEEWDPEYTPKSKKYYLHDDREGEGSDKWVSRGRGRGAFPRGRGRFMFRKSSTSPKWAHDKFSGEEGEIEDDESGTENREEKDNIQPTTE
As for B1, the binding entry is given as “binds”.

These data come from article PMC8324870.
